Laboratory results published in publication PMC8741891.
These are yes or no findings as the source states them, for the method shown. Some entries that bind do so weakly or less than the wild type.

By UniProt entry, the sequences of proteins in these tests, tags left out. Residues count along the entry.
UniProt P07237, 18-508: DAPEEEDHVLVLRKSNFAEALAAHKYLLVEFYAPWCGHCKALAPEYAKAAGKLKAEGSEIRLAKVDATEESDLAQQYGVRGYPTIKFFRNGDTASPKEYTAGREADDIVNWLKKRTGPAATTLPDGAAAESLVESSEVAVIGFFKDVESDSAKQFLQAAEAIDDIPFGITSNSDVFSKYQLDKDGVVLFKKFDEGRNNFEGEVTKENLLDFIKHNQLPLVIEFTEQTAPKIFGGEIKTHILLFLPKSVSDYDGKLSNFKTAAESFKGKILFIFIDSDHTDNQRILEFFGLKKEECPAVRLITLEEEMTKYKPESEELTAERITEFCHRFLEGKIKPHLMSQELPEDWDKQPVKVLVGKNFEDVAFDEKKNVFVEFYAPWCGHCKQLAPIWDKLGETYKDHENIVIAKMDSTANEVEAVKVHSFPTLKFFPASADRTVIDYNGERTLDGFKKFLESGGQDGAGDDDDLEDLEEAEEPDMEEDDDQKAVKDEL

Biological target: Cholera toxin holotoxin, nicked and reduced (UniProt P01555)
Assay: SPR; […] (10 ug/mL) […] ([…], […]; 10 mM MES pH 7.4, 200 mM NaCl; […]; both purified

Substance: protein disulfide isomerase, reduced (from UniProt P07237 18-508) (enzyme)
- binding: binds
